Some values come without a unit; they compare only within their column.
Legend:
[1] = Serum ethanolamine phospholipid ratios to PtdEt 16:0/18:0 (M01) in human cohorts; settings: for Ratio of M19 to M01 serum ratio between cohorts: males and females combined
[2] = Serum ethanolamine phospholipid levels in human cohorts (dementia severity, post-mortem pathology, age) by flow-injection MS/MS
[3] = serum, females, post mortem SDAT
[4] = serum, females, post mortem control

In the case of `CC/C=C\C/C=C\C/C=C\C/C=C\C/C=C\C/C=C\CCC(=O)OC(CO/C=C\CCCCCCCCCCCCCC)COP(=O)(O)OCCN` (centres unmarked) [Metabolite M19, Plasmenyl 16:0/22:6], the “Ratio of M19 to M01 serum ratio between cohorts” value (from here on “Ratio of M19”) ([1]; 60-69 to 50-59) is reported as 0.75, the “Ratio of M19” value ([1]; 70-95 to 50-59) is reported as 0.95 and the “Ratio of M19” value ([1]; 70-95 to 60-69) is reported as 1.26. For the same compound, the “Ratio of ethanolamine phospholipid ratios to M01 between cohorts” value (shortened to “Ratio … to M01 between cohorts”) ([1]; AD, All to CN, Male) was 0.601, the “Ratio … to M01 between cohorts” value ([1]; ADAS 5-19 to CN, Male) was 0.672 and the “Ratio of M19” value ([1]; ADAS 5-19 to CN) was 0.74. The “Ratio of M19” value ([1]; ADAS 20-39 to ADAS 5-19) was 0.90, the “Ratio … to M01 between cohorts” value ([1]; ADAS 20-39 to CN, Male) was 0.599 and the “Ratio of M19” value ([1]; ADAS 20-39 to CN) was 0.66. For the same compound, the “Ratio of M19” value ([1]; ADAS 40-70 to ADAS 5-19) was 0.72, the “Ratio of M19” value ([1]; ADAS 40-70 to ADAS 20-39) was 0.80 and the “Ratio … to M01 between cohorts” value ([1]; ADAS 40-70 to CN, Male) was 0.456. For the same compound, the “Ratio of M19” value ([1]; ADAS 40-70 to CN) was 0.53, the “Ratio of M19” value ([1]; CN to 50-59) was 1.07 and the “Ratio of M19” value ([1]; CN to 60-69) was 1.42. For the same compound, the “Average serum ethanolamine phospholipid ratio to M01, Mean” value ([1]; Cognitive Normal, Male, serum) was 1.103, the “Ratio of M19” value ([1]; SDAT to 50-59) was 0.70 and the “Ratio of M19” value ([1]; SDAT to 70-95) was 0.74. For the same compound, the “Ratio of M19” value ([1]; SDAT to CN) was 0.65, the “Average serum ethanolamine phospholipid ratio to M01, Mean” value ([1]; SDAT, ADAS 5-19, Male, serum) was 0.740 and the “Average serum ethanolamine phospholipid ratio to M01, Mean” value ([1]; SDAT, ADAS 20-39, Male, serum) was 0.660. For the same compound, the “Average serum ethanolamine phospholipid ratio to M01, Mean” value ([1]; SDAT, ADAS 40-70, Male, serum) was 0.503, the “Average serum ethanolamine phospholipid ratio to M01, Mean” value ([1]; SDAT_all, Male, serum) was 0.663 and the “Ethanolamine Phospholipid Ratio to M01, Mean, Age Ctl, 30-39, Female” value ([1]; human serum, females aged 30-39) was 1.009. The “Ethanolamine Phospholipid Ratio to M01, Mean, Age Ctl, 40-49, Female” value ([1]; human serum, females aged 40-49) was 0.902, the “Ethanolamine Phospholipid Ratio to M01, Mean, Age Ctl, 50-59, Female” value ([1]; human serum, females aged 50-59) was 0.974 and the “Ratio of Ethanolamine Phospholipid Ratio to M01, 50-59 vs. 40-49, Female” value ([1]; human serum, females aged 50-59 vs. females aged 40-49) was 1.079. The “Ethanolamine Phospholipid Ratio to M01, Mean, Age Ctl, 60-69, Female” value ([1]; human serum, females aged 60-69) was 0.716, the “Ratio of Ethanolamine Phospholipid Ratio to M01, 60-69 vs. 40-49, Female” value ([1]; human serum, females aged 60-69 vs. females aged 40-49) was 0.794 and the “Ethanolamine Phospholipid Ratio to M01, Mean, Age Ctl, 70+_Female” value ([1]; human serum, females aged 70+) was 0.877. The “Ratio of Ethanolamine Phospholipid Ratio to M01, 70+ vs. 40-49, Female” value ([1]; human serum, females aged 70+ vs. females aged 40-49) was 0.972, the “Ratio of Ethanolamine Phospholipid Ratio to M01, 50-59 vs. 40-49, Male” value ([1]; human serum, males aged 50-59 vs. males aged 40-49) was 1.426 and the “Ratio of Ethanolamine Phospholipid Ratio to M01, 60-69 vs. 40-49, Male” value ([1]; human serum, males aged 60-69 vs. males aged 40-49) was 1.266. For the same compound, the “Ratio of Ethanolamine Phospholipid Ratio to M01, 70+ vs. 40-49, Male” value ([1]; human serum, males aged 70+ vs. males aged 40-49) was 1.451, the “Ratio of ethanolamine phospholipid ratio to M01, ADAS 5-19 to CN, Female” value ([1]; serum, females, ADAS 5-19 vs cognitive normal) was 0.813 and the “Ratio of ethanolamine phospholipid ratio to M01, ADAS 20-39 to 5-19, Female” value ([1]; serum, females, ADAS 20-39 vs ADAS 5-19) was 0.901. The “Ratio of ethanolamine phospholipid ratio to M01, ADAS 20-39 to CN, Female” value ([1]; serum, females, ADAS 20-39 vs cognitive normal) was 0.733, the “Ratio of ethanolamine phospholipid ratio to M01, ADAS 40-70 to 5-19, Female” value ([1]; serum, females, ADAS 40-70 vs ADAS 5-19) was 0.738 and the “Ratio of ethanolamine phospholipid ratio to M01, ADAS 40-70 to 20-39, Female” value ([1]; serum, females, ADAS 40-70 vs ADAS 20-39) was 0.819. For the same compound, the “Ratio of ethanolamine phospholipid ratio to M01, ADAS 40-70 to CN, Female” value ([1]; serum, females, ADAS 40-70 vs cognitive normal) was 0.600, the “Ethanolamine phospholipid ratio to M01, Mean, SDAT, ADAS 5-19, Female” value ([1]; serum, females, SDAT ADAS 5-19) was 0.728 and the “Ethanolamine phospholipid ratio to M01, Mean, SDAT, ADAS 20-39, Female” value ([1]; serum, females, SDAT ADAS 20-39) was 0.656. The “Ethanolamine phospholipid ratio to M01, Mean, SDAT, ADAS 40-70, Female” value ([1]; serum, females, SDAT ADAS 40-70) was 0.537, the “Ratio of ethanolamine phospholipid ratio to M01, AD, All to CN, Female” value ([1]; serum, females, all AD vs cognitive normal) was 0.709 and the “Ethanolamine phospholipid ratio to M01, Mean, SDAT_all Female” value ([1]; serum, females, all SDAT) was 0.634. For the same compound, the “Ratio of ethanolamine phospholipid ratio to M01, Autopsy AD vs. Control, Female” value ([1]; serum, females, autopsy AD vs post mortem control) was 0.853, the “Ethanolamine phospholipid ratio to M01, Mean, Cognitive Normal, Female” value ([1]; serum, females, cognitive normal) was 0.895 and the “Ethanolamine phospholipid ratio to M01, Mean, Post Mortem SDAT Female” value [1, 3] was 0.180. The “Ethanolamine phospholipid ratio to M01, Mean, Post Mortem Ctl, Female” value [1, 4] was 0.211, the “Ratio of ethanolamine phospholipid ratio to M01, ADAS 20-39 to 5-19, Male” value ([1]; serum, males, SDAT ADAS 20-39 vs ADAS 5-19) was 0.891 and the “Ratio of ethanolamine phospholipid ratio to M01, ADAS 40-70 to 5-19, Male” value ([1]; serum, males, SDAT ADAS 40-70 vs ADAS 5-19) was 0.679. The “Ratio of ethanolamine phospholipid ratio to M01, ADAS 40-70 to 20-39, Male” value ([1]; serum, males, SDAT ADAS 40-70 vs ADAS 20-39) was 0.762, the “Ethanolamine phospholipid ratio to M01, Mean, Age Ctl, 30-39, Male” value ([1]; serum, males, age control 30-39) was 0.725 and the “Ethanolamine phospholipid ratio to M01, Mean, Age Ctl, 40-49, Male” value ([1]; serum, males, age control 40-49) was 0.607. For the same compound, the “Ethanolamine phospholipid ratio to M01, Mean, Age Ctl, 50-59, Male” value ([1]; serum, males, age control 50-59) was 0.865, the “Ethanolamine phospholipid ratio to M01, Mean, Age Ctl, 60-69, Male” value ([1]; serum, males, age control 60-69) was 0.769 and the “Ethanolamine phospholipid ratio to M01, Mean, Age Ctl, 70+_Male” value ([1]; serum, males, age control 70+) was 0.881. For the same compound, the “Ethanolamine phospholipid ratio to M01, Mean, Post Mortem SDAT Male” value ([1]; serum, males, post mortem SDAT) was 0.164, the “Ratio of ethanolamine phospholipid ratio to M01, SDAT vs Control (post mortem, males)” value ([1]; serum, males, post mortem SDAT vs post mortem control) was 0.601 and the “Ethanolamine phospholipid ratio to M01, Mean, Post Mortem Ctl, Male” value ([1]; serum, males, post mortem control) was 0.273. For the same compound, the “Ratio of serum levels” value ([2]; AD, All to CN, Male) was 0.611, the “Ratio of serum levels” value ([2]; ADAS 5-19 to CN, Male) was 0.688 and the “Ratio of serum levels” value ([2]; ADAS 20-39 to 5-19, Male) was 0.866. For the same compound, the “Ratio of serum levels” value ([2]; ADAS 20-39 to CN, Male) was 0.596, the “Ratio of serum levels” value ([2]; ADAS 40-70 to 5-19, Male) was 0.642 and the “Ratio of serum levels” value ([2]; ADAS 40-70 to 20-39, Male) was 0.741. The “Ratio of serum levels” value ([2]; ADAS 40-70 to CN, Male) was 0.442, the “Serum level, Mean” value ([2]; Cognitive Normal, Female) was 0.103 and the “Average serum level, Mean” value ([2]; Cognitive Normal, Male) was 0.127. The “Serum level, Mean” value ([2]; Post Mortem Ctl, Male) was 0.032, the “Serum level, Mean” value ([2]; Post Mortem SDAT Male) was 0.014 and the “Ratio of serum levels” value ([2]; Post mortem SDAT vs Control, Male) was 0.452. For the same compound, the “Ratio of EtnPls 16:0/22:6 alone between cohorts” value ([2]; Post-Mortem SDAT to Control, males and females combined) was 0.55, the “Serum level, Mean” value ([2]; SDAT, ADAS 5-19, Female) was 0.079 and the “Average serum level, Mean” value ([2]; SDAT, ADAS 5-19, Male) was 0.088. For the same compound, the “Serum level, Mean” value ([2]; SDAT, ADAS 20-39, Female) was 0.072, the “Average serum level, Mean” value ([2]; SDAT, ADAS 20-39, Male) was 0.076 and the “Serum level, Mean” value ([2]; SDAT, ADAS 40-70, Female) was 0.063. For the same compound, the “Average serum level, Mean” value ([2]; SDAT, ADAS 40-70, Male) was 0.056, the “Serum level, Mean” value ([2]; SDAT_all, Female) was 0.071 and the “Average serum level, Mean” value ([2]; SDAT_all, Male) was 0.078. For the same compound, the “Ratio, ADAS 5-19 to CN, Female” value ([2]; serum level ratio, females, ADAS 5-19 vs CN) was 0.768, the “Ratio, ADAS 20-39 to 5-19, Female” value ([2]; serum level ratio, females, ADAS 20-39 vs ADAS 5-19) was 0.911 and the “Ratio, ADAS 20-39 to CN, Female” value ([2]; serum level ratio, females, ADAS 20-39 vs CN) was 0.699. For the same compound, the “Ratio, ADAS 40-70 to 5-19, Female” value ([2]; serum level ratio, females, ADAS 40-70 vs ADAS 5-19) was 0.798, the “Ratio, ADAS 40-70 to 20-39, Female” value ([2]; serum level ratio, females, ADAS 40-70 vs ADAS 20-39) was 0.875 and the “Ratio, ADAS 40-70 to CN, Female” value ([2]; serum level ratio, females, ADAS 40-70 vs CN) was 0.612. The “Ratio, 50-59 vs. 40-49, Female” value ([2]; serum level ratio, females, age 50-59 vs 40-49) was 0.986, the “Ratio, 60-69 vs. 40-49, Female” value ([2]; serum level ratio, females, age 60-69 vs 40-49) was 0.872 and the “Ratio, 70+ vs. 40-49, Female” value ([2]; serum level ratio, females, age 70+ vs 40-49) was 1.030. The “Ratio, AD, All to CN, Female” value ([2]; serum level ratio, females, all AD vs cognitively normal) was 0.688, the “Ratio, Autopsy AD vs. Control, Female” value ([2]; serum level ratio, females, autopsy AD vs control) was 0.635 and the “Ratio, 50-59 vs. 40-49, Male” value ([2]; serum level ratio, males, age 50-59 vs 40-49) was 1.484. The “Ratio, 60-69 vs. 40-49, Male” value ([2]; serum level ratio, males, age 60-69 vs 40-49) was 1.540, the “Ratio, 70+ vs. 40-49, Male” value ([2]; serum level ratio, males, age 70+ vs 40-49) was 1.789 and the “Mean serum level, Age Ctl, 30-39, Female” value ([2]; serum, females, age 30-39) was 0.107. For the same compound, the “Mean serum level, Age Ctl, 40-49, Female” value ([2]; serum, females, age 40-49) was 0.100, the “Mean serum level, Age Ctl, 50-59, Female” value ([2]; serum, females, age 50-59) was 0.099 and the “Mean serum level, Age Ctl, 60-69, Female” value ([2]; serum, females, age 60-69) was 0.087. The “Mean serum level, Age Ctl, 70+, Female” value ([2]; serum, females, age 70+) was 0.103, the “Mean serum level, Post Mortem SDAT, Female” value [2, 3] was 0.022 and the “Mean serum level, Post Mortem Ctl, Female” value [2, 4] was 0.035. For the same compound, the “Mean serum level, Age Ctl, 30-39, Male” value ([2]; serum, males, age 30-39) was 0.086, the “Mean serum level, Age Ctl, 40-49, Male” value ([2]; serum, males, age 40-49) was 0.063 and the “Mean serum level, Age Ctl, 50-59, Male” value ([2]; serum, males, age 50-59) was 0.094. For the same compound, the “Mean serum level, Age Ctl, 60-69, Male” value ([2]; serum, males, age 60-69) was 0.098 and the “Mean serum level, Age Ctl, 70+, Male” value ([2]; serum, males, age 70+) was 0.114.

Source: patent US9517222B2, “Method for the treatment of senile dementia of the Alzheimer's type” (Phenomenome Discoveries Inc., priority 2007, dated 2016)
